Measurements published in article PMC13091039.

Sequences of proteins named here, by UniProt entry; tags and fusion partners are left off. A change or cut given only in a name is not applied to a line headed by its entry.
UniProt P25116: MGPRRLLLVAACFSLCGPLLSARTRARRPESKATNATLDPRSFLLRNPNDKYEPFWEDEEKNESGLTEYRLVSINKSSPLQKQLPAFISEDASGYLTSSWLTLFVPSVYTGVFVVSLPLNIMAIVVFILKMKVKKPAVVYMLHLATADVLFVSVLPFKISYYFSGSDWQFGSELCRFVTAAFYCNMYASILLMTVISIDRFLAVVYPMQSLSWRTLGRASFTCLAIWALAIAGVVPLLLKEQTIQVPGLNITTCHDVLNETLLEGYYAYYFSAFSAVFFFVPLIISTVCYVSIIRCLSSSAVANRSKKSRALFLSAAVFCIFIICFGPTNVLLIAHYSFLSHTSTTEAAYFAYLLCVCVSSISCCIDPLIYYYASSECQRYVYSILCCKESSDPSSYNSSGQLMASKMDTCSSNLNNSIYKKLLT

Experiments:
[1] = target: thrombin-activated PAR1 dP2 (proximal phospho-site) mutant fused to YFP (human) (UniProt P25116); assay: FRET or BRET; HEK293 parental cells expressing PAR1-YFP (WT or mutant), Rluc-βarr2 and EPCR(-Halo) (thrombin also without EPCR); 5 μM coelenterazine H, then 1 nM thrombin or 20 nM APC; BRET (530/480 nm) over time at 37°C, percent over basal
[2] = target: thrombin-activated PAR1 dP2 (proximal phospho-site) mutant fused to YFP (human) (UniProt P25116); assay: FRET or BRET; HEK293 GRK2,3,5,6 KO cells re-expressing GRK5 WT, with PAR1-YFP (WT or mutant), EPCR-Halo and Rluc-βarr2; 1 nM thrombin or 20 nM APC, 37°C
[3] = target: thrombin-activated PAR1 0P mutant fused to YFP (human) (UniProt P25116); assay: as above

binding [1]: binds | binding [2]: binds | binding [3]: no binding
Substance: Renilla luciferase (Rluc)-tagged β-arrestin-2 (from UniProt P32121 1-409)

No constants are given. Whether binding was seen depends on the method and setting. In cells and extracts the contact can be indirect. For part of these data: Binding calls can cover weak binding; strength is not graded here.
